Experimental data reported in PubChem BioAssay AID493014 (National Center for Advancing Translational Sciences (NCATS), 2011).
The list shows a part of the results. Shown are side measurements of this screen, not its main read-out; they come without a call. The list favours compounds with an active or inconclusive main result. Words in brackets tell the shape of the fitted curve; partial curves, single points and poor fits give uncertain potencies.

Experiment: qHTS Assay to Find Inhibitors of Chronic Active B-Cell Receptor Signaling
Details: ABC-DLBCL IkBa-CBG/CBR reporter, luminescence ratio (green luciferase fused to IkBa over red control in TMD8 lymphoma cells), 4 h
In short: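 Concentration-response series (up to 46 uM) were applied to TMD8 dual-reporter cells for 4 h at 37C with doxycycline. Green/red ratio, after filter-overlap correction, defined %Activity; red signal alone was normalised to basal cells and zero luminescence.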

[1] = measured here: CBR red luminescence, cell number
[2] = measured here: IkBa-CBG green luminescence

Compound | AC50 [1] | AC50 [2]
O=C(N/N=C/c1ccc(O)cc1)c1[nH]c2ccc(Br)cc2c1-c1ccccc1 | 6.51 µM [rising, full curve] | 2.59 µM [falling, full curve]
CCOc1ncccc1C(=O)OCC(=O)c1ccc(Cl)s1 | 35.5 µM [rising, single point] | 
Cc1nnc(SCc2cnc(-c3ccccc3)o2)[nH]c1=O | 32.6 µM [falling, single point] | 
CCOC(=O)CSc1nc2ccccc2n1C(=O)OCC | 1.58 µM [falling, full curve] | 
O=C(/C=C/c1cccc(F)c1)Nc1nccs1 | 8.91 µM [falling, partial curve, poor fit] | 
Cc1ccc(N/C(N)=N/c2nc(CSc3nnc(C)s3)cc(=O)[nH]2)c(C)c1 | 3.16 µM [rising, partial curve, poor fit] | 6.31 µM [falling, single point]
COc1ccc(C(=NNc2ccccc2C(=O)O)c2ccc(OC)cc2)cc1 | 23.1 µM [falling, partial curve, poor fit] | 
CCc1cc(C(N)=O)c(NC(=O)c2ccc(OC)cc2)s1 | 1.84 µM [rising, partial curve, poor fit] | 
Cc1c(-n2cc(C(=O)c3cc(Br)ccc3O)cc(C#N)c2=O)c(=O)n(-c2ccccc2)n1C | 6.51 µM [falling, single point] | 
CC1CC(C)CN(C(=O)COC(=O)CCCN2C(=O)c3cccc4cccc(c34)C2=O)C1 (centres undefined) | 0.562 µM [rising, full curve, poor fit] | 
CCCc1cc(C(=O)Nc2ccc(F)c(Cl)c2)no1 | 8.91 µM [falling, partial curve] | 
CCc1nccn1CCC(=O)NC1CCCc2c1cnn2-c1ccc(F)cc1F (centres undefined) | 15.8 µM [rising, partial curve, poor fit] | 
CC1C(=O)Nc2ccc(S(=O)(=O)NCCc3ccc(Cl)cc3)cc2NC1=O (centres undefined) | 20 µM [falling, single point] | 
Cc1cc(C)nc(NS(=O)(=O)c2ccc(NC(=O)NC3CCCCC3)cc2)n1 | 2.06 µM [rising, partial curve, poor fit] | 
COC(=O)[C@]1(Cc2ccccc2)N[C@H](c2ccc(-c3ccc(F)cc3)cc2)[C@@H]2C(=O)N(C)C(=O)[C@@H]21 | 23.1 µM [falling, single point] | 
Cc1csc(NC(=O)CNC(=O)OCc2ccccc2)n1 | 11.2 µM [falling, partial curve, poor fit] | 
CN1/C(=C/c2cc[n+](C)c3ccccc23)C=Cc2ccccc21 | 2.24 µM [rising, full curve, poor fit] | 

In the list so far, four contain fluorine:
Compound | AC50 [1] | AC50 [2]
O=C(/C=C/c1cccc(F)c1)Nc1nccs1 | 8.91 µM [falling, partial curve, poor fit] | 
CCCc1cc(C(=O)Nc2ccc(F)c(Cl)c2)no1 | 8.91 µM [falling, partial curve] | 
CCc1nccn1CCC(=O)NC1CCCc2c1cnn2-c1ccc(F)cc1F (centres undefined) | 15.8 µM [rising, partial curve, poor fit] | 
COC(=O)[C@]1(Cc2ccccc2)N[C@H](c2ccc(-c3ccc(F)cc3)cc2)[C@@H]2C(=O)N(C)C(=O)[C@@H]21 | 23.1 µM [falling, single point] | 
